Measured values as given in article doi:10.1101/137711.
These are yes or no findings as the source states them, for the method shown. Some entries that bind do so weakly or less than the wild type. For part of these data: Where a sequence is shown, tags or fusion partners need not be part of it.

T1: Smc4 subunit of condensin, Smc4-StrepII3 (wild-type) (S. cerevisiae), Q12267
T1 chain: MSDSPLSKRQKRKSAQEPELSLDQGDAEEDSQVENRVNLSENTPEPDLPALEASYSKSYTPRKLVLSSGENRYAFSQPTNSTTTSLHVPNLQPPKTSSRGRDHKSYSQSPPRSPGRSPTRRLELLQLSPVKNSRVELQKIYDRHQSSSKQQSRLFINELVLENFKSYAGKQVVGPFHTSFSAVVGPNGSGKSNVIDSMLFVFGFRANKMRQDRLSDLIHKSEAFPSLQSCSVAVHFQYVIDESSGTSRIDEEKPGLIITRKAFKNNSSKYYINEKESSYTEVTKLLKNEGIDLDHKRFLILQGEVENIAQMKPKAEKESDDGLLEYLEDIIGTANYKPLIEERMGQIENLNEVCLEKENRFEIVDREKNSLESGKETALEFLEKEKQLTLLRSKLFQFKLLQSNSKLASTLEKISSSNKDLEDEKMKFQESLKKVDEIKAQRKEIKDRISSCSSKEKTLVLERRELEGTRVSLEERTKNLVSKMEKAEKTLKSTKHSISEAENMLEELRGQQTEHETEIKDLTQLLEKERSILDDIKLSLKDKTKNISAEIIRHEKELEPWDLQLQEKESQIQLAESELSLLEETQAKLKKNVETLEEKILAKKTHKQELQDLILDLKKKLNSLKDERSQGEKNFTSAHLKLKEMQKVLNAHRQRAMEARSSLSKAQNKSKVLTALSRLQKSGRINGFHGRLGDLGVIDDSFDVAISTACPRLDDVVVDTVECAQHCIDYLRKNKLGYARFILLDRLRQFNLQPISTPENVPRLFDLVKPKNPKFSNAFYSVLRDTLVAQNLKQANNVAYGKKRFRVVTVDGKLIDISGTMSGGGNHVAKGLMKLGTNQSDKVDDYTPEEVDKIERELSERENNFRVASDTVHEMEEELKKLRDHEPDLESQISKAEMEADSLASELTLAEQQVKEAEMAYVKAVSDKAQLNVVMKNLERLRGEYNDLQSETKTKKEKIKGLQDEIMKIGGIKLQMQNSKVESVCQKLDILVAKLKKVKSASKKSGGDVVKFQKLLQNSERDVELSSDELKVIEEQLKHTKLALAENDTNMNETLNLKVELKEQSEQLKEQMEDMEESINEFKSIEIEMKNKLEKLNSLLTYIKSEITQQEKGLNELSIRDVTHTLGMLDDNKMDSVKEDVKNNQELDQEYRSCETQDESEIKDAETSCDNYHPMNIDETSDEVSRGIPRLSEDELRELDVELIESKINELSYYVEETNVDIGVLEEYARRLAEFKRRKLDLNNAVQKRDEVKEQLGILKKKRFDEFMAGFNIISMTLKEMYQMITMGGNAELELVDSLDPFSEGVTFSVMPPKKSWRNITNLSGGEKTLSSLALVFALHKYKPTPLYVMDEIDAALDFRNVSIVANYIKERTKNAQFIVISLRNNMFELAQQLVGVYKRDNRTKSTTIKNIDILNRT

T2: Smc4 subunit of condensin, Smc4-StrepII3 (wild-type) (S. cerevisiae) (UniProt Q12267)
T2 sequence: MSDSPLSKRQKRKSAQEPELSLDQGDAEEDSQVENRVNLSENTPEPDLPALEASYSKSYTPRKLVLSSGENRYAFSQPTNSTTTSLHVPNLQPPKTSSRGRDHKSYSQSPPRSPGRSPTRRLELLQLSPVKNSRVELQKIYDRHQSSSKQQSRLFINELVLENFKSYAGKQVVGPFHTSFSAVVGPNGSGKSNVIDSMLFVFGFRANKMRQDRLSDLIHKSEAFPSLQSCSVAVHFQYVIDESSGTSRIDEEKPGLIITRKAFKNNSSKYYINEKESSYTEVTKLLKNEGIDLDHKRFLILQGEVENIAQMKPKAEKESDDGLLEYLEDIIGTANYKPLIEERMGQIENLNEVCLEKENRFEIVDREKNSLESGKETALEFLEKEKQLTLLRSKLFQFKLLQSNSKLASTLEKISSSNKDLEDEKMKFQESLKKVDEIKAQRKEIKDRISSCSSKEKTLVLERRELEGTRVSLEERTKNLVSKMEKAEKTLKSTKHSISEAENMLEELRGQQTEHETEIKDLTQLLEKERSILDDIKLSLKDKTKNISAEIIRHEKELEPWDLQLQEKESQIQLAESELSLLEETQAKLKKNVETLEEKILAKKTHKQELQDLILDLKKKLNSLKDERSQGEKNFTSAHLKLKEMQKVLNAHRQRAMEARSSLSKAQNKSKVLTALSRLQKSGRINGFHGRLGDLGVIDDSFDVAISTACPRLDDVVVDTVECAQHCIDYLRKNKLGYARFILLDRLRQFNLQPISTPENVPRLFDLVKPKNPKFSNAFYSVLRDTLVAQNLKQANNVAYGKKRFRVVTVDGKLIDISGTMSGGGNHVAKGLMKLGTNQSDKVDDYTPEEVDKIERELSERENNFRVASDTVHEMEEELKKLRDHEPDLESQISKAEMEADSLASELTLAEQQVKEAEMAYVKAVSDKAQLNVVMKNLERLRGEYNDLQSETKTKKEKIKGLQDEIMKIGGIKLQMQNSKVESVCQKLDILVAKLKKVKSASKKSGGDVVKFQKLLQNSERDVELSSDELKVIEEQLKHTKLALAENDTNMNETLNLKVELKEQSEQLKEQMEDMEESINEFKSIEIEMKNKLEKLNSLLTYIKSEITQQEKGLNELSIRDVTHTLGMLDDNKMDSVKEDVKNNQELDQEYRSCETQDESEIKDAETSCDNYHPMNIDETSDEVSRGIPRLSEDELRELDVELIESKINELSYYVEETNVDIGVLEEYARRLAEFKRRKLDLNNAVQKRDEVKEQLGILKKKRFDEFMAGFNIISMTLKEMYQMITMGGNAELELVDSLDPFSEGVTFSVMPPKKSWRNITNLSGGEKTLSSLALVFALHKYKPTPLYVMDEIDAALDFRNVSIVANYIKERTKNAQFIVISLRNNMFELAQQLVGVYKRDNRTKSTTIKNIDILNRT

T3: Brn1 kleisin subunit of condensin, Brn1-HA3-His12 (S. cerevisiae) (UniProt P38170)
T3 sequence: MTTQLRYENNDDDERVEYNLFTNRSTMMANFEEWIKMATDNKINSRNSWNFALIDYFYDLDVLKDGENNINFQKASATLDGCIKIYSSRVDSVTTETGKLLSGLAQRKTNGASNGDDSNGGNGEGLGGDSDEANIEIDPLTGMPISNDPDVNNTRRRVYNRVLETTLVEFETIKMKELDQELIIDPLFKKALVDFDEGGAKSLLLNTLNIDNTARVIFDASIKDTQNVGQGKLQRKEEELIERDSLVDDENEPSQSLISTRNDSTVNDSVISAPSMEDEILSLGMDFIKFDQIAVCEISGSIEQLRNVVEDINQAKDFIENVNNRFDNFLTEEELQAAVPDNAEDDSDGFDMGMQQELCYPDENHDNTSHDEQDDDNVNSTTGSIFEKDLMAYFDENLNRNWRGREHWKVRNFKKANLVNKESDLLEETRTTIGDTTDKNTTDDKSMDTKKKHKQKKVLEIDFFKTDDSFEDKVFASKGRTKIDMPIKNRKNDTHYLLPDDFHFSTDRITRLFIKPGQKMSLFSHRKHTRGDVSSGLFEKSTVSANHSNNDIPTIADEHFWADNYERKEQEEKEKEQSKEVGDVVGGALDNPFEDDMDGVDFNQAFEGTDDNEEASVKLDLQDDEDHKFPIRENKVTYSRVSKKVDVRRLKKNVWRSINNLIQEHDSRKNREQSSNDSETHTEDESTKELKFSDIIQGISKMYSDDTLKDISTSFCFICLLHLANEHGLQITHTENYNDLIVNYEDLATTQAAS


Columns and labels:
Assay in all cases: tandem affinity co-purification + SEC
[1] = target: T1, Smc4 subunit of condensin, …; conditions: remark: other sources report otherwise
[2] = target: T2, Smc4 subunit of condensin, Smc4-StrepII3 (wild-type) (S. cerevisiae)
[3] = target: T3, Brn1 kleisin subunit of condensin, Brn1-HA3-His12 (S. cerevisiae)

| binding [1] | binding [2] | binding [3] | Binder |
| --- | --- | --- | --- |
| binds | – | – | Ycg1 HEAT-repeat subunit of condensin, Q06680 1-1035 (protein) MQDPDGIDINTKIFNSVAEVFQKAQGSYAGHRKHIAVLKKIQSKAVEQGYEDAFNFWFDKLVTKILPLKKNEIIGDRIVKLVAAFIASLERELILAKKQNYKLTNDEEGIFSRFVDQFIRHVLRGVESPDKNVRFRVLQLLAVIMDNIGEIDESLFNLLILSLNKRIYDREPTVRIQAVFCLTKFQDEEQTEHLTELSDNEENFEATRTLVASIQNDPSAEVRRAAMLNLINDNNTRPYILERARDVNIVNRRLVYSRILKSMGRKCFDDIEPHIFDQLIEWGLEDRELSVRNACKRLIAHDWLNALDGDLIELLEKLDVSRSSVCVKAIEALFQSRPDILSKIKFPESIWKDFTVEIAFLFRAIYLYCLDNNITEMLEENFPEASKLSEHLNHYILLRYHHNDISNDSQSHFDYNTLEFIIEQLSIAAERYDYSDEVGRRSMLTVVRNMLALTTLSEPLIKIGIRVMKSLSINEKDFVTMAIEIINDIRDDDIEKQEQEEKIKSKKINRRNETSVDEEDENGTHNDEVNEDEEDDNISSFHSAVENLVQGNGNVSESDIINNLPPEKEASSATIVLCLTRSSYMLELVNTPLTENILIASLMDTLITPAVRNTAPNIRELGVKNLGLCCLLDVKLAIDNMYILGMCVSKGNASLKYIALQVIVDIFSVHGNTVVDGEGKVDSISLHKIFYKVLKNNGLPECQVIAAEGLCKLFLADVFTDDDLFETLVLSYFSPINSSNEALVQAFAFCIPVYCFSHPAHQQRMSRTAADILLRLCVLWDDLQSSVIPEVDREAMLKPNIIFQQLLFWTDPRNLVNQTGSTKKDTVQLTFLIDVLKIYAQIEKKEIKKMIITNINAIFLSSEQDYSTLKELLEYSDDIAENDNLDNVSKNALDKLRNNLNSLIEEINERSETQTKDENNTANDQYSSILGNSFNKSSNDTIEHAADITDGNNTELTKTTVNISAVDNTTEQSNSRKRTRSEAEQIDTSKNLENMSIQDTSTVAKNVSFVLPDEKSDAMSIDEEDKDSESFSEVC |
| – | binds | binds | Smc2 subunit of condensin (wild-type) (protein, UniProt P38989 1-1170) MKVEELIIDGFKSYATRTVITDWDPQFNAITGLNGSGKSNILDAICFVLGIASMSTVRASSLQDLIYKRGQAGVTKASVTIVFDNTDKSNSPIGFTNSPQISVTRQVVLGGTSKYLINGHRAPQQSVLQLFQSVQLNINNPNFLIMQGKITKVLNMKPSEILSLIEEAAGTKMFEDRREKAERTMSKKETKLQENRTLLTEEIEPKLEKLRNEKRMFLEFQSTQTDLEKTERIVVSYEYYNIKHKHTSIRETLENGETRMKMLNEFVKKTSEEIDSLNEDVEEIKLQKEKELHKEGTISKLENKENGLLNEISRLKTSLSIKVENLNDTTEKSKALESEIASSSAKLIEKKSAYANTEKDYKMVQEQLSKQRDLYKRKEELVSTLTTGISSTGAADGGYNAQLAKAKTELNEVSLAIKKSSMKMELLKKELLTIEPKLKEATKDNELNVKHVKQCQETCDKLRARLVEYGFDPSRIKDLKQREDKLKSHYYQTCKNSEYLKRRVTNLEFNYTKPYPNFEASFVHGVVGQLFQIDNDNIRYATALQTCAGGRLFNVVVQDSQTATQLLERGRLRKRVTIIPLDKIYTRPISSQVLDLAKKIAPGKVELAINLIRFDESITKAMEFIFGNSLICEDPETAKKITFHPKIRARSITLQGDVYDPEGTLSGGSRNTSESLLVDIQKYNQIQKQIETIQADLNHVTEELQTQYATSQKTKTIQSDLNLSLHKLDLAKRNLDANPSSQIIARNEEILRDIGECENEIKTKQMSLKKCQEEVSTIEKDMKEYDSDKGSKLNELKKELKLLAKELEEQESESERKYDLFQNLELETEQLSSELDSNKTLLHNHLKSIESLKLENSDLEGKIRGVEDDLVTVQTELNEEKKRLMDIDDELNELETLIKKKQDEKKSSELELQKLVHDLNKYKSNTNNMEKIIEDLRQKHEFLEDFDLVRNIVKQNEGIDLDTYRERSKQLNEKFQELRKKVNPNIMNMIENVEKKEAALKTMIKTIEKDKMKIQETISKLNEYKRETLVKTWEKVTLDFGNIFADLLPNSFAKLVPCEGKDVTQGLEVKVKLGNIWKESLIELSGGQRSLIALSLIMALLQFRPAPMYILDEVDAALDLSHTQNIGHLIKTRFKGSQFIVVSLKEGMFANANRVFRTRFQDGTSVVSIM |
